# According to the M2OR odorant receptor database:
# By UniProt entry, the sequences of proteins in these tests, tags left out. Chains listed by the source or under a name are the forms on record and can include a tag or linker.
# UniProt Q7TRB8, as listed by the source: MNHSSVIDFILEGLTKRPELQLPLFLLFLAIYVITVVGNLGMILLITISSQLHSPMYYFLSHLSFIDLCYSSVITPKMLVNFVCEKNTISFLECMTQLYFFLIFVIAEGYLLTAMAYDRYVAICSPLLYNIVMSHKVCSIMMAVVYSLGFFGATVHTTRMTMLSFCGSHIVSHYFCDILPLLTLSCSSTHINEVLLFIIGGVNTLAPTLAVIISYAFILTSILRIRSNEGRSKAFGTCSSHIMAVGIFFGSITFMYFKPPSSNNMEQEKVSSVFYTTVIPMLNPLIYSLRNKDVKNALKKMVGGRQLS
# UniProt Q7TS17, as listed by the source: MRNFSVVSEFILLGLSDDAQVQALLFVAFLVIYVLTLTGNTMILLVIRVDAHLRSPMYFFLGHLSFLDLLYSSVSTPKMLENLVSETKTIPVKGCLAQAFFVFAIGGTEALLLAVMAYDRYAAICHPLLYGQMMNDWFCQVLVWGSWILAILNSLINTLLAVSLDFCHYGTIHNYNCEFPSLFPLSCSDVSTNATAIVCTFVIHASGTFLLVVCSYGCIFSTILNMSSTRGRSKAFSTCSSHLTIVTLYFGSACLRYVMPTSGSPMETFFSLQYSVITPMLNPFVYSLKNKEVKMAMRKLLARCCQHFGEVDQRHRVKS
# UniProt Q7TRR7, as listed by the source: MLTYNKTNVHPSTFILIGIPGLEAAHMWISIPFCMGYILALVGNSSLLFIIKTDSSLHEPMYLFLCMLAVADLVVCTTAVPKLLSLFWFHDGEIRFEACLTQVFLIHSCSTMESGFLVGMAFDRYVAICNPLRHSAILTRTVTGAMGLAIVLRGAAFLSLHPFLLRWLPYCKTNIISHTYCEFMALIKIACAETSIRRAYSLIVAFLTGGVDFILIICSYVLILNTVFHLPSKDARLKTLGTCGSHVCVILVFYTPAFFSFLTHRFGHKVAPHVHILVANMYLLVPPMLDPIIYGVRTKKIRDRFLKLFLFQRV
# UniProt Q7TRM0, as listed by the source: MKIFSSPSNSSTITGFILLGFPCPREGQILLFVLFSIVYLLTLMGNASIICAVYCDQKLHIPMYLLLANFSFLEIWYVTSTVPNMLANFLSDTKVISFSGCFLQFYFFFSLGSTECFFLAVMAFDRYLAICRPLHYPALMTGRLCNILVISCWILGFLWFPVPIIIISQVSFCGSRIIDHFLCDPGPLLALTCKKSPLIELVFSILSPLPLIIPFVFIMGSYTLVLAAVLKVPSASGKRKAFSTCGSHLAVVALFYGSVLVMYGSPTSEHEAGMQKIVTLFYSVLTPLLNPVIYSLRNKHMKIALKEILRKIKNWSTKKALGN
# UniProt Q7TRN9, as listed by the source: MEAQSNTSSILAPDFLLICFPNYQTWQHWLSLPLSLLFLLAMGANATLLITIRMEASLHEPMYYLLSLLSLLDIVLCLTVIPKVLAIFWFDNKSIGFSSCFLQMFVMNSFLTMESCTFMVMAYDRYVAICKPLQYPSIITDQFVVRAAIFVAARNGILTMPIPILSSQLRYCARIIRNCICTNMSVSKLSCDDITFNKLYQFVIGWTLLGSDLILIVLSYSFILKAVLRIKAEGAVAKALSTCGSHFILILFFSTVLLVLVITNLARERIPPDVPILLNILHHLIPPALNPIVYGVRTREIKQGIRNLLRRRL
# UniProt Q7TRR8, as listed by the source: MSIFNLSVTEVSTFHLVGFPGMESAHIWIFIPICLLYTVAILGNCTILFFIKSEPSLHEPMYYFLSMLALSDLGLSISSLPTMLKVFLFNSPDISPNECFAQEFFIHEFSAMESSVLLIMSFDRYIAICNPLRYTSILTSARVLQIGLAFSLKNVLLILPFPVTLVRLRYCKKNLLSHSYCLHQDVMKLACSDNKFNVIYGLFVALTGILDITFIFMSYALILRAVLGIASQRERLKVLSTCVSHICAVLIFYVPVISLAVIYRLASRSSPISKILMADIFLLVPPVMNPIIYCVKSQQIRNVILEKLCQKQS
# UniProt Q7TRX1, as listed by the source: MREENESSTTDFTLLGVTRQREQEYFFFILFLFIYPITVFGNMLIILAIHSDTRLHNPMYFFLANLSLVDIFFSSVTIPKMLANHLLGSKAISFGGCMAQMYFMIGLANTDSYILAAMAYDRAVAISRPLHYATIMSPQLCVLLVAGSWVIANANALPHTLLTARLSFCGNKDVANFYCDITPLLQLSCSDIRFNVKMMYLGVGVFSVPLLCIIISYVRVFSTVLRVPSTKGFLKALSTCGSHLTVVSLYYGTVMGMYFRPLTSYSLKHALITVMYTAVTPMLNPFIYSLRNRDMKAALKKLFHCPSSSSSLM
# This is a selection; strong and weak results do not stand in their true shares. The calls were merged from several studies; some rest on single wells.
# Legend:
# Settings in all cases: stereoisomer not certain
# UniProt Q7TRB8 = target: UniProt Q7TRB8
# Summary of the method: (§1)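 Values were gathered from published papers (main text and supplementary material), with extra details requested from the original authors when needed, and checked for typos and inconsistencies. Each receptor–molecule pair is called responsive (active) if the original authors judged the measured signal statistically different from baseline, and non-responsive (inactive) otherwise. Assay methods varied by source, often transient mammalian cell-line luciferase assays. Recorded details include cell line, G-protein, co-transfected protein and tags.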
# UniProt Q7TRE4 = target: T1, UniProt Q7TRE4
# T1 sequence (whole entry): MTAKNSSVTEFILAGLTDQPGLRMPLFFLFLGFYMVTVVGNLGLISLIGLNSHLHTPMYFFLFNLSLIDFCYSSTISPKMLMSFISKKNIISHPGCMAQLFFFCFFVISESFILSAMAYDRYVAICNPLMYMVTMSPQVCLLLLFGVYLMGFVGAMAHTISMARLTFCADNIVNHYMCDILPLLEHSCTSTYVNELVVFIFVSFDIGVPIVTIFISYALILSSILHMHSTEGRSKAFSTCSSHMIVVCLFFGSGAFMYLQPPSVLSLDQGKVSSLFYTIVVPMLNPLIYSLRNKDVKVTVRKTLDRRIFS
# Summary of the method: as §1
# UniProt Q7TRW1 = target: T2, UniProt Q7TRW1
# T2 sequence (whole entry): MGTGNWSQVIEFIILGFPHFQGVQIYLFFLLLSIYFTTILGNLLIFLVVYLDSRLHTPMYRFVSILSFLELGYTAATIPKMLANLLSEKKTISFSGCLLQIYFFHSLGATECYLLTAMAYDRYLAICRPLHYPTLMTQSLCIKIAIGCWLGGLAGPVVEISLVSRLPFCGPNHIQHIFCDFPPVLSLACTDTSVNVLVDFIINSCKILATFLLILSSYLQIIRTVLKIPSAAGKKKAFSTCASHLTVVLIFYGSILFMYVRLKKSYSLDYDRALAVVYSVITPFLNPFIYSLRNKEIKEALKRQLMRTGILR
# Summary of the method: as §1
# UniProt Q7TRX0 = target: T3, UniProt Q7TRX0
# T3 sequence (whole entry): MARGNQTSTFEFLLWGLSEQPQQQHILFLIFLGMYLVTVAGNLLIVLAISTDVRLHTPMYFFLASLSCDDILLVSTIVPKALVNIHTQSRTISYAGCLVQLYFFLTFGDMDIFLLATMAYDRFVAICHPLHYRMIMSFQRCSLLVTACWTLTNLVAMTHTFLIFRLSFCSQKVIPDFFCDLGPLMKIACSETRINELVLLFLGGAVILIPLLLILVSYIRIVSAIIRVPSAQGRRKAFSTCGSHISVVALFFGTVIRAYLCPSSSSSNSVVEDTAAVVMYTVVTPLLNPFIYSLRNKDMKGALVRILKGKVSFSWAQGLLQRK
# Summary of the method: as §1
# UniProt Q7TS17 = target: UniProt Q7TS17
# Summary of the method: as §1
# UniProt Q7TRR7 = target: UniProt Q7TRR7
# Summary of the method: as §1
# UniProt Q7TRM0 = target: UniProt Q7TRM0
# Summary of the method: as §1
# UniProt Q7TRN9 = target: UniProt Q7TRN9
# Summary of the method: as §1
# UniProt Q7TRR8 = target: UniProt Q7TRR8
# Summary of the method: as §1
# UniProt Q7TRX1 = target: UniProt Q7TRX1
# Summary of the method: as §1
structure (smiles),measurement,setting,value
CC(=O)c1ccccc1,odorant receptor agonist call,UniProt Q7TRB8,inactive
same,odorant receptor agonist call,UniProt Q7TRE4,active
same,odorant receptor agonist call,UniProt Q7TRW1,active
same,odorant receptor agonist call,UniProt Q7TRX0,inactive
same,odorant receptor agonist call,UniProt Q7TS17,inactive
CCCCCCCCCC=O,odorant receptor agonist call,UniProt Q7TRE4,inactive
same,odorant receptor agonist call,UniProt Q7TRW1,inactive
same,odorant receptor agonist call,UniProt Q7TRX0,inactive
CC(C)=CCCC(C)=CC=O,odorant receptor agonist call,UniProt Q7TRR7,active
same,odorant receptor agonist call,UniProt Q7TRX0,inactive
C=CCc1ccc(O)c(OC)c1,odorant receptor agonist call,UniProt Q7TRX0,inactive
CC(C)(O)CCCC1=CCC(C=O)CC1 (stereo unspecified),odorant receptor agonist call,UniProt Q7TRE4,inactive
same,odorant receptor agonist call,UniProt Q7TRW1,inactive
same,odorant receptor agonist call,UniProt Q7TRX0,inactive
COC(=O)c1ccccc1O,odorant receptor agonist call,UniProt Q7TRX0,inactive
CCCCCC(=O)O,odorant receptor agonist call,UniProt Q7TRE4,inactive
same,odorant receptor agonist call,UniProt Q7TRM0,inactive
same,odorant receptor agonist call,UniProt Q7TRN9,inactive
same,odorant receptor agonist call,UniProt Q7TRR8,inactive
same,odorant receptor agonist call,UniProt Q7TRW1,inactive
same,odorant receptor agonist call,UniProt Q7TRX0,inactive
CC(C)CC(=O)O,odorant receptor agonist call,UniProt Q7TRX0,inactive
CC12CCC(CC1)C(C)(C)O2,odorant receptor agonist call,UniProt Q7TRX0,inactive
COc1cc(C=O)ccc1O,odorant receptor agonist call,UniProt Q7TRX0,inactive
CCCCCOC(C)=O,odorant receptor agonist call,UniProt Q7TRX0,inactive
CCCCCCC=O,odorant receptor agonist call,UniProt Q7TRE4,inactive
same,odorant receptor agonist call,UniProt Q7TRW1,inactive
same,odorant receptor agonist call,UniProt Q7TRX0,inactive
CC1COCc2cc3c(cc21)C(C)(C)C(C)C3(C)C (stereo unspecified),odorant receptor agonist call,UniProt Q7TRX0,inactive
CC(C)C=O,odorant receptor agonist call,UniProt Q7TRX0,inactive
CCCC(=O)O,odorant receptor agonist call,UniProt Q7TRM0,inactive
same,odorant receptor agonist call,UniProt Q7TRN9,inactive
same,odorant receptor agonist call,UniProt Q7TRR8,inactive
C=C(C)C1CC=C(C)C(=O)C1 (stereo unspecified),odorant receptor agonist call,UniProt Q7TRB8,inactive
same,odorant receptor agonist call,UniProt Q7TRE4,inactive
same,odorant receptor agonist call,UniProt Q7TRW1,inactive
same,odorant receptor agonist call,UniProt Q7TRX0,inactive
same,odorant receptor agonist call,UniProt Q7TRX1,active
same,odorant receptor agonist call,UniProt Q7TS17,inactive
C=CC(C)(O)CCC=C(C)C (stereo unspecified),odorant receptor agonist call,UniProt Q7TRX0,inactive
CC12CCC(C1)C(C)(C)C2=O (stereo unspecified),odorant receptor agonist call,UniProt Q7TRE4,inactive
same,odorant receptor agonist call,UniProt Q7TRW1,inactive
CC(=O)OC1CC2CCC1(C)C2(C)C (stereo unspecified),odorant receptor agonist call,UniProt Q7TRX0,inactive
O=C1CCCCC1,odorant receptor agonist call,UniProt Q7TRE4,inactive
same,odorant receptor agonist call,UniProt Q7TRW1,inactive
c1cnccn1,odorant receptor agonist call,UniProt Q7TRX0,inactive
CC(=O)C(C)=O,odorant receptor agonist call,UniProt Q7TRX0,inactive
C=CCc1ccc(OC)c(OC)c1,odorant receptor agonist call,UniProt Q7TRX0,inactive
CCCCCC(C)=O,odorant receptor agonist call,UniProt Q7TRE4,inactive
same,odorant receptor agonist call,UniProt Q7TRW1,inactive
same,odorant receptor agonist call,UniProt Q7TRX0,inactive
CCCCCCCC=O,odorant receptor agonist call,UniProt Q7TRE4,inactive
same,odorant receptor agonist call,UniProt Q7TRW1,inactive
same,odorant receptor agonist call,UniProt Q7TRX0,inactive
CCCCO,odorant receptor agonist call,UniProt Q7TRX0,inactive
O=C1CCCCCCCCCCCCCCO1,odorant receptor agonist call,UniProt Q7TRX0,inactive
COc1ccccc1O,odorant receptor agonist call,UniProt Q7TRX0,inactive
CCCCCCCCC=O,odorant receptor agonist call,UniProt Q7TRE4,inactive
same,odorant receptor agonist call,UniProt Q7TRR7,inactive
same,odorant receptor agonist call,UniProt Q7TRW1,inactive
same,odorant receptor agonist call,UniProt Q7TRX0,inactive

# A second format for some results above:
structure (smiles)	measurement	setting	value
CC(C)(O)CCCC1=CCC(C=O)CC1 (stereo unspecified)	odorant receptor agonist call	UniProt Q7TRX0	inactive
CCCC(=O)O	odorant receptor agonist call	UniProt Q7TRN9	inactive
O=C1CCCCC1	odorant receptor agonist call	UniProt Q7TRW1	inactive
